Assay: general procedure: Boc solid-phase peptide synthesis; N-[(1H-benzotriazol-1-yl)(dimethylamino)methylene]-N-methylmethanaminium hexaflu
Conditions: whole synthesis

K-G-GNMTDSFTKAEASILPSITNQSGPNSTLIISNSSLEEE-G-K-K-NH2 (KGGNMTDSFTKAEASILPSITNQSGPNSTLIISNSSLEEEGKK; four palmitic acids; C-terminal amide; listed as Mus musculus)
purity (crude or final not stated): 91.6%

— patent US8409580B2 (AC Immune SA, priority 2003, dated 2013)
